Values from PubChem BioAssay AID1159579 (Peter MacCallum Cancer Centre, 2015).

Test: 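Retest candidate lymphatic endothelial migration regulators using several independent siRNAs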 (follow-up of hits)
Cells: human dermal lymphatic endothelial cells
Reagents: single siRNA against human genes, 25 nM
Read-out: 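High content images of wound closure area and cell nuclei counts, each the average of two wells, expressed against mock transfection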
Scale: migration relative to mock: higher = more migration into the scratch; mean nuclei count: higher = more cells remaining
Hit rule: 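Called active when the migration ratio is 0.6 or lower (impaired) or 1.3 or higher (accelerated), but inactive whenever the mean nuclei count falls under 3300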
Calls: active = migration changed (impaired or accelerated); inactive = no migration change, or too few cells
This is one part, drawn at random, of about 2,000 deposited reagents. Of all reagents, 549 (27%) were called active. 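Some migration ratios are negative; siRNAs with too few cells are inactive whatever their migration ratio.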 Entries without a mark were called inactive. The numbers tell different reagents against one gene apart. Reagent sequences are not shown. Not stated in the record: the time to read-out.

Target gene | siRNA no. | migration relative to mock | migration and cell number class | mean nuclei count
MDH1 (GeneID 4190) | 1 | 1.02 | no change in migration or cell number | 6648
MDH1 (GeneID 4190) | 2 | 0.62 | no change in migration or cell number | 6520
MDH1 (GeneID 4190) | 3 | 0.66 | no change in migration or cell number | 5678
MDH1 (GeneID 4190) | 4 | 0.44 (active) | migration reduced | 4755
LZTS3 (GeneID 9762) | 1 | 0.15 (active) | migration reduced | 4144
LZTS3 (GeneID 9762) | 2 | 1.08 | no change in migration or cell number | 6234
LZTS3 (GeneID 9762) | 3 | 0.99 | no change in migration or cell number | 6633
LZTS3 (GeneID 9762) | 4 | 1.02 | no change in migration or cell number | 5689
CENPO (GeneID 79172) | 1 | 0.74 | no change in migration or cell number | 5214
CENPO (GeneID 79172) | 2 | 0.88 | no change in migration or cell number | 5178
CENPO (GeneID 79172) | 3 | 1.08 | no change in migration or cell number | 5108
CENPO (GeneID 79172) | 4 | 0.41 | too few cells; migration not scored | 2483
HBE1 (GeneID 3046) | 1 | 1.02 | no change in migration or cell number | 6816
HBE1 (GeneID 3046) | 2 | 0.81 | no change in migration or cell number | 6160
HBE1 (GeneID 3046) | 3 | 0.97 | no change in migration or cell number | 7624
HBE1 (GeneID 3046) | 4 | -1.96 | too few cells; migration not scored | 2398
CHCHD3 (GeneID 54927) | 1 | 0.77 | no change in migration or cell number | 6556
CHCHD3 (GeneID 54927) | 2 | 0.92 | no change in migration or cell number | 5151
CHCHD3 (GeneID 54927) | 3 | 1.06 | no change in migration or cell number | 6946
CHCHD3 (GeneID 54927) | 4 | 0.96 | no change in migration or cell number | 6124
GCGR (GeneID 2642) | 1 | 0.37 (active) | migration reduced | 4555
GCGR (GeneID 2642) | 2 | 0.05 (active) | migration reduced | 3918
GCGR (GeneID 2642) | 3 | 0.03 (active) | migration reduced | 5178
GCGR (GeneID 2642) | 4 | 0.8 | no change in migration or cell number | 6365
TCL1B (GeneID 9623) | 1 | 0.11 (active) | migration reduced | 3621
TCL1B (GeneID 9623) | 2 | 0.82 | no change in migration or cell number | 5301
TCL1B (GeneID 9623) | 3 | 1.12 | no change in migration or cell number | 4746
TCL1B (GeneID 9623) | 4 | 0.8 | no change in migration or cell number | 4950
AP2B1 (GeneID 163) | 1 | 0.9 | no change in migration or cell number | 6836
AP2B1 (GeneID 163) | 2 | 0.79 | no change in migration or cell number | 7210
AP2B1 (GeneID 163) | 3 | 0.3 (active) | migration reduced | 4398
AP2B1 (GeneID 163) | 4 | 1.05 | no change in migration or cell number | 7053

Continued, starting with the last 4 of the part before.
Target gene | siRNA no. | migration relative to mock | migration and cell number class | mean nuclei count
AP2B1 (GeneID 163) | 1 | 0.9 | no change in migration or cell number | 6836
AP2B1 (GeneID 163) | 2 | 0.79 | no change in migration or cell number | 7210
AP2B1 (GeneID 163) | 3 | 0.3 (active) | migration reduced | 4398
AP2B1 (GeneID 163) | 4 | 1.05 | no change in migration or cell number | 7053
COPB2 (GeneID 9276) | 1 | 0.06 (active) | migration reduced | 5324
COPB2 (GeneID 9276) | 2 | 0.32 (active) | migration reduced | 4819
COPB2 (GeneID 9276) | 3 | 0.54 (active) | migration reduced | 4736
COPB2 (GeneID 9276) | 4 | 0.27 (active) | migration reduced | 5260
OBP2A (GeneID 29991) | 1 | 0.69 | no change in migration or cell number | 5746
OBP2A (GeneID 29991) | 2 | 0.74 | no change in migration or cell number | 4212
OBP2A (GeneID 29991) | 3 | 1.04 | no change in migration or cell number | 7130
OBP2A (GeneID 29991) | 4 | 0.76 | no change in migration or cell number | 5187
FBXL18 (GeneID 80028) | 1 | 0.8 | no change in migration or cell number | 5326
FBXL18 (GeneID 80028) | 2 | 0.74 | no change in migration or cell number | 7190
FBXL18 (GeneID 80028) | 3 | 0.94 | no change in migration or cell number | 5662
FBXL18 (GeneID 80028) | 4 | 0.82 | no change in migration or cell number | 5604
ETNK2 (GeneID 55224) | 1 | 0.41 (active) | migration reduced | 6680
ETNK2 (GeneID 55224) | 2 | 0.48 (active) | migration reduced | 4099
ETNK2 (GeneID 55224) | 3 | 0.82 | no change in migration or cell number | 5941
ETNK2 (GeneID 55224) | 4 | 0.59 (active) | migration reduced | 5778
